Measured data: PubChem BioAssay AID1259254 (NCATS, 2017)
Assay: 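Gene knock-downs that lead to re-replication, shown by excess G2 DNA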 (primary screen). System: human HCT116 colorectal cancer cells. Reagents: single siRNA against human genes. Time to read-out: 3 days. Read-out: 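Nuclei stained with Hoechst and imaged; cell-cycle phase assigned by DNA content; G2 share scaled per plate, non-targeting siRNA 0%, GMNN siRNA 100%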. Scale: G2 robust z-score and G2 cells, % of GMNN control: higher = more G2 cells, more excess DNA replication; raw share of cells in G2: higher = larger share of cells with G2 DNA content. Active means: 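Active siRNAs have a G2 robust z of 5 or more median absolute deviations over the median, which in these data means about 38% or higher of GMNN control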.
The whole screen tested about 59,000 reagents; this is a random part of them. About 1,550 of them (2.6%) count as active. 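G2 share is only a proxy for re-replication; each gene was hit by three separate siRNAs, and active genes were retested.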 Raw values vary from plate to plate and are shown uncorrected. Unmarked entries are inactive. Reagents against one gene are numbered here. Reagent sequences are not shown. The record does not give: the amount of reagent.

target,reagent,G2 robust z-score,"G2 cells, % of GMNN control",raw share of cells in G2 (%)
RAPH1,1,0.616,7.3,7.76
RAPH1,2,1.36,12.5,10.2
RAPH1,3,0.265,4.83,3.97
LMF2,1,-0.946,-3.69,2.52
LMF2,2,0.256,4.77,4.5
LMF2,3,0.733,8.13,5.5
CCDC3,1,-1.13,-4.99,2.45
CCDC3,2,-0.531,-0.766,3.23
CCDC3,3,0.32,5.22,3.99
SEMA3B,1,-1.23,-5.71,2.13
SEMA3B,2,-0.866,-3.12,4.28
SEMA3B,3,-1.29,-6.13,2.46
RPL31P31,1,1.38,12.7,8.41
RPL31P31,2,-0.221,1.41,4.08
RPL31P31,3,2.68,21.8,10.6
GLTPD2,1,0.315,5.19,6.86
GLTPD2,2,-0.309,0.794,4.04
GLTPD2,3,-0.173,1.75,4.17
TCF23,1,0.0283,3.17,4.17
TCF23,2,-0.855,-3.05,2.81
TCF23,3,-1.09,-4.7,1.46
SPNS3,1,-0.0873,2.35,5.69
SPNS3,2,-1.41,-6.99,2.15
SPNS3,3,-0.225,1.39,6.62
OR1J1,1,-0.832,-2.89,3
OR1J1,2,0.453,6.16,5.95
OR1J1,3,0.248,4.71,6.09
TMSB15B,1,0.646,7.51,6.38
TMSB15B,2,0.967,9.77,6.82
TMSB15B,3,0.341,5.37,4.9
MAGEE1,1,-0.916,-3.47,2.98
MAGEE1,2,0.0328,3.2,5.99
MAGEE1,3,-0.84,-2.94,2.1
SLC22A5,1,0.211,4.45,7.18
SLC22A5,2,3.17,25.3,13.2
SLC22A5,3,7.08 (active),52.8,21.4
NOS1,1,-0.305,0.825,3.47
NOS1,2,3.08,24.6,14.9
NOS1,3,0.353,5.45,7.63
BTN2A2,1,0.931,9.52,6.92
BTN2A2,2,0.899,9.29,9.73
BTN2A2,3,-0.297,0.878,6.82
DDIT4L,1,-0.281,0.993,4.49
DDIT4L,2,-1.07,-4.59,1.96
DDIT4L,3,-0.0406,2.68,2.6
FSTL1,1,2.01,17.1,9.22
FSTL1,2,-0.739,-2.23,4.99
FSTL1,3,-0.711,-2.04,2.49
